# Reference: article PMC12040169 (PLOS Biology, 2025)
# The other results are listed elsewhere or left out.
# System: T1, CTL2-GFP (C. trachomatis L2/434/Bu, GFP-expressing)
# T1 construct: L2/434/Bu, GFP-expressing
# Set-up: species or system HeLa; Intracellular C. trachomatis growth in HeLa cells, bulk GFP fluorescence relative to DMSO
# Conditions: bulk GFP, single well; 28.5 h, 10 µM; inhibitor
row,SMILES,% of control remaining [%]
1,COc1ccc(-n2c(SCC(=O)Nc3cccc(C(C)=O)c3)nc3sc(C)c(C)c3c2=O)cc1 [CBK091806],101.284
2,COc1ccc(C2C(C(=O)O)c3ccccc3C(=O)N2C)cc1 (stereo not drawn) [CBK286847],133.454
3,CC1CCN(S(=O)(=O)c2ccc(NC(=O)c3cccc(NC(=O)C(C)C)c3)cc2)CC1 [CBK265653],109.76
4,CCc1c(C(=O)NCc2cc(C3CC3)[nH]n2)[nH]c2ccc(F)cc12 [CBK282501],130.666
5,COc1ccc(NC(=O)c2cnc(-c3cccc(C)c3)c(-c3ccco3)c2)cc1 [CBK037491],112.069
6,Cc1cccnc1C(c1ccc(F)cc1)N(C)C(=O)C1CCN(CCc2ccc(Br)cc2)CC1 (stereo not drawn) [CBK148397],80.1783
7,COc1ccc([C@H]2CN(C(=O)c3ccccc3)[C@@H]3CCN(Cc4ccsc4)C[C@H]23)cc1 [CBK285585],88.1261
8,Cc1cccc(-c2ccc(CC3(C(N)=O)CCN(C(=O)c4ccccc4)CC3)cc2)c1 [CBK285778],94.1899
9,C=CCn1c(S)nnc1CCSCc1ccccc1 [CBK268849],137.234
10,CC(C)NC(=O)N1Cc2nc[nH]c2C[C@H]1C(=O)NCc1ccco1 [CBK288974],131.409
11,CN(C)c1cccc(C(=O)Nc2nc3ccc(S(N)(=O)=O)cc3s2)c1 [CBK287602],123.093
12,CN1CCN(C(=O)c2ccccc2NC(=O)NC2CCCCC2)CC1 [CBK269771],135.547
13,O=S(=O)(Nc1cccc(C(F)(F)F)c1)c1ccc(OC(F)(F)F)cc1 [CBK043554],83.8122
14,O=C(CC1(O)C(=O)N(Cc2ccc3c(c2)OCO3)c2ccccc21)c1cccnc1 (stereo not drawn) [CBK269633],92.208
15,O=C(O)c1cc(NC(=O)C2CC2)cc(C(=O)O)c1 [CBK268564],141.277
16,O=C(CCC(=O)Nc1ccccc1)N/N=C/c1ccco1 [CBK261968],114.236
17,O=c1nc(-c2ccco2)oc2ccccc12 [CBK152421],102.561
18,COc1ccc(C2(C(=O)NCc3ccc(OC(F)(F)F)cc3)CC2)cc1 [CBK149823],100.962
19,Cc1cccnc1Nc1ccc(C2CCCCN2Cc2ccc3nccnc3c2)cn1 (stereo not drawn) [CBK286133],104.244
20,COc1ccc(CNC(=O)c2cc(S(=O)(=O)N3CCOCC3)cs2)cc1 [CBK307577],122.486
21,Cc1ccc(S(=O)(=O)N(C)CCCC#N)cc1 [CBK085945],125.403
22,CC(=O)c1cc2cnccc2[nH]c1=O [CBK089771],155.269
23,Cc1ccc2nc(CNC(=O)N(C)CCc3c(C)n[nH]c3C)cn2c1 [CBK306984],113.056
24,O=S(=O)(c1ccc(C(F)(F)F)cc1Cl)N1CCN(Cc2ccc(F)cc2F)CC1 [CBK062739],94.11
25,OCC(O)/C=N/Nc1nc(Nc2ccccc2)nc(N2CCCCC2)n1 (stereo not drawn) [CBK262042],90.8038
26,CC(=O)N1CCC(NC[C@H]2C[C@@H]3CCN2C[C@@H]3c2cc(C3CCCC3)nc(C)n2)CC1 [CBK289129],136.172

row,SMILES,% of control remaining [%]
1,FC(F)(F)c1nc2ccccc2nc1SC1CCCCC1 [CBK107205],82.1575
2,COc1cc(OC)nc(C(NC(=O)C2CCN(Cc3cccn3C)CC2)c2ccc(F)cc2)n1 (stereo not drawn) [CBK148170],105.151
3,CSCCC(NC(=O)CCc1ccccc1)c1nnc2ccccn12 (stereo not drawn) [CBK304350],106.848
4,CC(=O)Nc1cccc(-c2nccnc2NCc2ccc3c(c2)OCO3)c1 [CBK037972],131.124
5,c1ccc(CNc2nc(-c3ccncc3)cs2)cc1 [CBK058609],135.3
6,CCN(CC)CCOC(=O)NS(=O)(=O)c1ccc(Cl)cc1 [CBK288510],99.1791
7,CCc1nn(CC(=O)N(CC)CC)c(=O)c2cc3sc(C)cc3n12 [CBK284121],137.169
8,Cn1c(=O)n(CC(=O)NCc2ccccc2F)c2cccnc21 [CBK283909],115.969
9,NC(=O)c1cc(Cc2ccccc2)sc1NC(=O)c1cccnc1 [CBK268168],121.927
10,O=C(CSc1nnc(-c2cc(Br)ccc2O)n1-c1ccccc1)N1CCc2ccccc21 [CBK268346],146.988
11,CC(C)Oc1cc(NC(=O)CS(=O)(=O)CC(=O)N(C)C)c(Cl)cc1Cl [CBK018112],120.873
12,COc1ccc(C(C)C)cc1-c1ccnc2[nH]c(=O)ccc12 [CBK073735],103.077
13,Cc1cc(COc2nccnc2OC2CCN(Cc3ccc(Cl)cc3)CC2)no1 [CBK082949T],122.126
14,COc1cc(CN2CCN(Cc3ccccc3F)CC2)cc(OC)c1O [CBK264219],100
15,CC1CCc2c(sc(NC(=O)CCN3C(=O)c4ccccc4C3=O)c2C(N)=O)C1 (stereo not drawn) [CBK263667],95.0265
16,CN(CCOC(=O)c1cccs1)C(C)(C)C [CBK027559C],160.058
17,CC(NC(=O)c1cc2ccccc2c(=O)[nH]1)c1ccc(-c2ccccc2)cc1 (stereo not drawn) [CBK297936],110.751
18,O=C(Cn1nnc2ccccc21)Nc1ccc(Cl)cn1 [CBK296068],150.474
19,CC[C@H]1CN(C(=O)c2cccnc2)CC[C@H]1CC(=O)NCc1ccc(F)cc1 [CBK289143],120.327
20,CS(=O)(=O)c1ccc(-c2ccc(C(=O)N3CCN(Cc4ccc(F)c(F)c4)CC3)nc2)cc1 [CBK160485],99.6197
21,CCn1c(CN2CCCC2c2nc(N(C)C)ncc2-c2cccc(F)c2)nc2ccccc21 (stereo not drawn) [CBK286500],93.9093
22,CCOc1ccc(-c2ccnc(N[C@H]3CC[C@@H](N)CC3)n2)cc1C(=O)O [CBK307104],158.82
23,COc1ccccc1C1OC(=O)CC1C(=O)N1CCN(c2ccc(Cl)cc2)CC1 (stereo not drawn) [CBK091332],108.232
24,Cc1ccc(C#N)c(NS(=O)(=O)c2cc(C)c(Cl)cc2C)c1 [CBK045250],59.8804
25,CCOC(=O)c1cnn(C2CCCN(Cc3ccc(C#N)o3)C2)c1 (stereo not drawn) [CBK304045],80.429
26,CCOc1cccc(-c2ccc(N(C)CCN(C)C)nc2)c1 [CBK036904],204.084

row,SMILES,% of control remaining [%]
1,OC1CCC(Nc2cncc(-c3ccc4ccccc4c3)n2)CC1 (stereo not drawn) [CBK065463],115.269
2,NC(=S)N1N=C2CCCCC2C1c1ccccc1 (stereo not drawn) [CBK288371],160.588
3,CCn1nc(C)c(CNC(=O)N(Cc2ccccn2)CC(C)C)c1C [CBK304193],98.5265
4,Cc1ccc2nc(N(CCCN(C)C)C(=O)c3ccco3)sc2c1 [CBK287639],107.955
5,Cc1cc(C(=O)Oc2cccc(NC3=NS(=O)(=O)c4ccccc43)c2)c2ccccc2n1 [CBK265302],108.924
6,CC(C)(C)OC(=O)N1CCC(NC(=O)c2ccc(-c3ccc(S(C)(=O)=O)cc3)cn2)CC1 [CBK174352],141.508
7,Clc1ccc(OCCCn2ccnc2)c(CN2CCSCC2)c1 [CBK307194],125.094
8,COc1ccc(-n2nc3cc(C)c(NC(=S)NC(=O)c4oc5ccccc5c4C)cc3n2)cc1 [CBK264188],94.3766
9,O=[N+]([O-])c1ccc2c(c1)oc1ccc(S(=O)(=O)N3CCCC3)cc12 [CBK268512],92.693
10,Nc1ccc(S(=O)(=O)Nc2nccc(/C=C/c3ccc(Cl)cc3)n2)cc1 [CBK263254],52.6218
11,COc1cccc2ncn(CCc3csc(N)n3)c(=O)c12 [CBK307679],100.089
12,O=C(CSCCOc1ccc(Br)cc1)Nc1ccc2c(c1)OCCO2 [CBK296714],120.496
13,COC(=O)CCC(=O)Nc1ccc(S(N)(=O)=O)cc1 [CBK261351],106.779
14,CCn1cc(-c2cncn2CC(C)N2CCC(C)CC2)cn1 (stereo not drawn) [CBK281565],123.961
15,NS(=O)(=O)c1ccc(NC2=NC(=O)C(CC(=O)Nc3ccccc3)S2)cc1 (stereo not drawn) [CBK266417],163.155
16,COc1ccc(S(=O)(=O)NC(C)C(=O)NCc2cccnc2)cc1Cl (stereo not drawn) [CBK269384],120.088
17,O=C(O)c1ccccc1SC1CC(=O)N(CCc2ccccc2)C1=O (stereo not drawn) [CBK269321],77.4011
18,CC(C)(C)c1cn(C[C@H]2CC3CCN2C[C@@H]3C(=O)N2CCOCC2)nn1 (stereo partly drawn) [CBK288735],137.991
19,Cc1csc(NC(=O)c2c(C)c(C)n[nH]c2=O)n1 [CBK297759],133.833
20,COc1ccc(-c2noc(COc3cccc(C(=O)O)c3)n2)c(OC)c1 [CBK298279],157.655
21,COc1cccc(NC(=O)CCn2ncc(Cl)c2C)c1 [CBK288012],100.265
22,Cc1csc(C2CN(Cc3ccn(C)c(=O)c3)CCO2)n1 (stereo not drawn) [CBK305763],102.882
23,Cc1cc(=[N+]2CCCCC2)cc(C)o1 [CBK022824I],137.364
24,CC(C)(C)c1ccc(S(=O)(=O)N2CCC3(CC2)OCCO3)cc1 [CBK038429],76.7353
25,CNc1nc(N(C)C)nc(-n2cnc(SCCOc3ccccc3C)n2)n1 [CBK288564],116.997
26,Cc1sc(NC(=O)c2ccccc2)c(C(Nc2ccccn2)c2ccc(F)cc2)c1C (stereo not drawn) [CBK296957],117.97

# Shown bar-delimited: part of the list above.
row | SMILES | % of control remaining [%]
15 | NS(=O)(=O)c1ccc(NC2=NC(=O)C(CC(=O)Nc3ccccc3)S2)cc1 (stereo not drawn) [CBK266417] | 163.155
16 | COc1ccc(S(=O)(=O)NC(C)C(=O)NCc2cccnc2)cc1Cl (stereo not drawn) [CBK269384] | 120.088
17 | O=C(O)c1ccccc1SC1CC(=O)N(CCc2ccccc2)C1=O (stereo not drawn) [CBK269321] | 77.4011
18 | CC(C)(C)c1cn(C[C@H]2CC3CCN2C[C@@H]3C(=O)N2CCOCC2)nn1 (stereo partly drawn) [CBK288735] | 137.991
19 | Cc1csc(NC(=O)c2c(C)c(C)n[nH]c2=O)n1 [CBK297759] | 133.833
